Assay results from the supplement of paper PMC12823440, “Inhibitors supercharge kinase turnover through native proteolytic circuits” (Nature, 2025).
The list shows a part of the results. The calls rarely recur for the same compound in another form.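 In K562 cells expressing nanoluciferase-fused kinases, luminescence was recorded at 4 h intervals between 2 and 18 h, normalized as percent of control with DMSO at 100% and a positive control at 0%. A significant (2 sigma) signal drop marks a time point as decreased. The authors' rule for a hit is not shown and takes in more than the number of time points.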

Protein sequences, listed by entry. Tags and fused reporters are not part of them.
UniProt P07333, whole entry: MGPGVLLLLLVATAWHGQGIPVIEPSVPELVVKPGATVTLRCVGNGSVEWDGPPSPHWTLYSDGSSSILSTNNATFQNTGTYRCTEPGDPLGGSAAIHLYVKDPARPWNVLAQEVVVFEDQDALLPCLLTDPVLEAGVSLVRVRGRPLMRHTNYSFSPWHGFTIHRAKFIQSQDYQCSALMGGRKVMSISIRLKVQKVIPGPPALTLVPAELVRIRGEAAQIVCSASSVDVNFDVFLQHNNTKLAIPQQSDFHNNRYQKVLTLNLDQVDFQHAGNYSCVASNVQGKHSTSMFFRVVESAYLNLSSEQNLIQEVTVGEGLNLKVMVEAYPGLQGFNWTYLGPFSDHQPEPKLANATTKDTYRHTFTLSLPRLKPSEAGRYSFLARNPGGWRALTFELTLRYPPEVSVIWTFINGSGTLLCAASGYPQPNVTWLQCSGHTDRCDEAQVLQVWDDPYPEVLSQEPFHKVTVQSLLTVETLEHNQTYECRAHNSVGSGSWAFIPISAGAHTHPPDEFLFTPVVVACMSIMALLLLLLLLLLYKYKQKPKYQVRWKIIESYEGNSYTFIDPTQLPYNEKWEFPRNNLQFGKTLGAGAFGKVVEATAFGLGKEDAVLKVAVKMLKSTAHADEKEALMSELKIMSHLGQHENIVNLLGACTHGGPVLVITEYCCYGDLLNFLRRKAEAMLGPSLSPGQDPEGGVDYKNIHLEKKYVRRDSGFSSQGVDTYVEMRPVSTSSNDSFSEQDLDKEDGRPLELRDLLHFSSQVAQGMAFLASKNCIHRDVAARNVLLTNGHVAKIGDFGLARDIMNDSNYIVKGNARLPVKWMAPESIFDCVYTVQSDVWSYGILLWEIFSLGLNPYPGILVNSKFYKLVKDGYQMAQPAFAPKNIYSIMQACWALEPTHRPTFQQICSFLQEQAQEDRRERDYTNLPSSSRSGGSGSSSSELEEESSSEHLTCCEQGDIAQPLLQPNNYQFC

target: CSF1R (UniProt P07333); assay: kinase-Nluc reporter destabilization hit call (1 = scored as downregulated) (binary); higher = compound decreases kinase abundance; conditions: 10 µM; K562; 2-18 h

Row | Structure (SMILES) | kinase-Nluc reporter destabilization hit call
1 | C=CC(=O)N1CCC([C@@H]2CCNc3c(C(N)=O)c(-c4ccc(Oc5ccccc5)cc4)nn32)CC1 [Zanubrutinib] | inactive: 0
2 | CCn1c(=O)c(-c2cc(NC(=O)Nc3ccccc3)c(F)cc2Br)cc2cnc(NC)cc21 [Ripretinib] | inactive: 0
3 | COc1cc(N2CCN(C)CC2)ccc1Nc1nccc(-c2cn(C)c3cnccc23)n1 | inactive: 0
4 | Fc1ccc(-c2nc(-c3ccc4ccccc4c3F)[nH]c2-c2ccncc2)cc1 | inactive: 0
5 | C=CC(=O)N(C)CCOc1c(N)ncnc1-c1cc(F)cc(NC(=O)c2ccc(C3CC3)cc2F)c1C [Remibrutinib] | inactive: 0
6 | NCCNc1ncc(C(N)=O)c(Nc2cccc(C(F)(F)F)c2)n1 [Syk Inhibitor II] | inactive: 0
7 | C[C@@H]1O[C@@H](Oc2c(-c3ccc(O)c(O)c3)oc3cc(O)cc(O)c3c2=O)[C@H](O)[C@H](O)[C@H]1O [Quercitrin] | inactive: 0
8 | CCCOc1ccc(C=C2SC(=O)NC2=O)cc1 | inactive: 0
9 | Cc1cc2c(F)c(Oc3ncnn4cc(OC[C@@H](C)O)c(C)c34)ccc2[nH]1 [Brivanib] | inactive: 0
10 | CC(C)[C@@](C)(O)[C@@H]1CN(c2nc(-c3[nH]nc4ncccc34)c(F)cc2Cl)CCN1 | inactive: 0
11 | CCCCCCCCCCCCc1ccc(S(=O)(=O)Nc2nncs2)cc1 | inactive: 0
12 | CC#CC(=O)N1CCC[C@H]1c1nc(-c2ccc(C(=O)Nc3ccccn3)cc2)c2c(N)nccn12 [Acalabrutinib] | inactive: 0
13 | CC(C)N(CCC(=O)c1ccc2ccccc2c1)Cc1ccccc1 | inactive: 0
14 | C=CC(=O)N1C[C@@H](Nc2ncnc3[nH]ccc23)CC[C@H]1C [(2R,5S)-Ritlecitinib] | inactive: 0
15 | COc1ccc(-c2cc(C(=O)NN=C(C)c3ccc(OC)c(OC)c3)[nH]n2)cc1 | active: 1
16 | Cn1cc(/C=C2\C(=O)Nc3cccnc32)c2ccccc21 | inactive: 0
17 | Cc1ccc2c(=O)c3cccc(CC(=O)O)c3oc2c1C [Vadimezan] | inactive: 0
18 | C[C@@H]1CN(C(=O)Nc2ccc(-c3nc(N4CCOCC4)c4cnn(CCCCCCC(=O)NO)c4n3)cc2)CCO1 [HDACs/mTOR Inhibitor 1] | inactive: 0
19 | C[C@H]1CN(C2COC2)CCN1c1ccc(Nc2cc(-c3ccnc(N4CCn5c(cc6c5CC(C)(C)C6)C4=O)c3CO)cn(C)c2=O)nc1 [Fenebrutinib] | inactive: 0
20 | Nc1ncccc1-c1nc2ccc(-c3ccccc3)nc2n1-c1ccc(C2(N)CCC2)cc1 [Miransertib] | inactive: 0
21 | C=CC(=O)Nc1cc2c(Nc3ccc(F)c(Cl)c3)ncnc2cc1OCCCN1CCOCC1 [Canertinib] | inactive: 0
22 | O=c1ncn2nc(Sc3ccc(F)cc3F)ccc2c1-c1c(Cl)cccc1Cl [Neflamapimod] | inactive: 0
23 | CCCCCC1CC1CC1CC1CCCCCCCC(=O)OC (stereo unspecified) | inactive: 0
24 | CC(C)(C)n1nc(-c2ccc(Cl)cc2)c2c(N)ncnc21 | inactive: 0
25 | NC1(C(=O)N[C@@H](CCO)c2ccc(Cl)cc2)CCN(c2nc[nH]c3nccc2-3)CC1 [Capivasertib] | inactive: 0
26 | Cc1ccc(O)cc1Nc1ccnc(Nc2cccc(C(N)=O)c2)n1 [Lck inhibitor 2] | inactive: 0

Three entries from above, ordered by molar mass, rising.
Row | Structure (SMILES) | kinase-Nluc reporter destabilization hit call
24 | CC(C)(C)n1nc(-c2ccc(Cl)cc2)c2c(N)ncnc21 | inactive: 0
13 | CC(C)N(CCC(=O)c1ccc2ccccc2c1)Cc1ccccc1 | inactive: 0
20 | Nc1ncccc1-c1nc2ccc(-c3ccccc3)nc2n1-c1ccc(C2(N)CCC2)cc1 [Miransertib] | inactive: 0
